Common to all, as to experiment: co-IP
The target of test [1] is keratin 6a (K6a), endogenous in hTCEpi cells (human (endogenous in hTCEpi)) (UniProt P02538).
For test [2], the target named is K6a-mCherry fusion protein (human) (UniProt P02538).
In test [3] the target is T1, Flag-tagged IKKε (UniProt Q14164).
T1 sequence: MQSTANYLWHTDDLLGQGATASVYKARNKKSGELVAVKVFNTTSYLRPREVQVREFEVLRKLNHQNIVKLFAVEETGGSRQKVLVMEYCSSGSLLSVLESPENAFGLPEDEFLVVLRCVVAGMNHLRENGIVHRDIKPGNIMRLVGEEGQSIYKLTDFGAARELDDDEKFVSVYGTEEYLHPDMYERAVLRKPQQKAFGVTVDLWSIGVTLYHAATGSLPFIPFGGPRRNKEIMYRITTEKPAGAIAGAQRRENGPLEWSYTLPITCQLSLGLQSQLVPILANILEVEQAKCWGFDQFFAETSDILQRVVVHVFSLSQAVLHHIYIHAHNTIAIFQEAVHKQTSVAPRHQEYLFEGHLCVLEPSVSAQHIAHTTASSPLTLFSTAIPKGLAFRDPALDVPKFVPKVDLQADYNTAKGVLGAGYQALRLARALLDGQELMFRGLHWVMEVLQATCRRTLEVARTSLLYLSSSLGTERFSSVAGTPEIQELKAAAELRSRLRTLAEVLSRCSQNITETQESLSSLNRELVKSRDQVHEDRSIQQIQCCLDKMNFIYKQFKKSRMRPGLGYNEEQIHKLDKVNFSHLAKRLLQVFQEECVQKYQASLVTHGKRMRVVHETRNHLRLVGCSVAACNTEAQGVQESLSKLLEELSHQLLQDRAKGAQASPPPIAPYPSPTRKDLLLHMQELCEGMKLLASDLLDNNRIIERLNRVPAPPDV

The chains behind the UniProt entries cited, without tags or fusion partners.
UniProt P02538: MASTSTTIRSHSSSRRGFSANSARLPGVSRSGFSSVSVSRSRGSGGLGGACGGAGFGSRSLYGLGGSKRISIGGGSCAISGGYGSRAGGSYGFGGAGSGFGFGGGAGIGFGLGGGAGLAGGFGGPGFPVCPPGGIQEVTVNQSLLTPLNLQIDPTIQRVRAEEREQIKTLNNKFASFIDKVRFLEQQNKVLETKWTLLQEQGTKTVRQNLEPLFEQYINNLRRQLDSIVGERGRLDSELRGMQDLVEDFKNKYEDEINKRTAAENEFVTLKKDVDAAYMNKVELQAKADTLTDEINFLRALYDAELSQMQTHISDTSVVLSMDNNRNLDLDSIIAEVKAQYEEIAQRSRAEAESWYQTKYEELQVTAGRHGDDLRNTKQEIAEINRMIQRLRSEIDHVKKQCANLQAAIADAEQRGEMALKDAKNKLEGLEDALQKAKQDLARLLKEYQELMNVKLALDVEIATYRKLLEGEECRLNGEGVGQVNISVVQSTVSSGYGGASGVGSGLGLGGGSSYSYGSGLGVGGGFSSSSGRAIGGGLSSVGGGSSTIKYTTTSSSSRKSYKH

The target of test [4] is K6a overexpressed in 293T cells (human) (UniProt P02538).
In test [5] the target is T2, Flag-tagged ELKS (UniProt Q8IUD2).
T2 sequence: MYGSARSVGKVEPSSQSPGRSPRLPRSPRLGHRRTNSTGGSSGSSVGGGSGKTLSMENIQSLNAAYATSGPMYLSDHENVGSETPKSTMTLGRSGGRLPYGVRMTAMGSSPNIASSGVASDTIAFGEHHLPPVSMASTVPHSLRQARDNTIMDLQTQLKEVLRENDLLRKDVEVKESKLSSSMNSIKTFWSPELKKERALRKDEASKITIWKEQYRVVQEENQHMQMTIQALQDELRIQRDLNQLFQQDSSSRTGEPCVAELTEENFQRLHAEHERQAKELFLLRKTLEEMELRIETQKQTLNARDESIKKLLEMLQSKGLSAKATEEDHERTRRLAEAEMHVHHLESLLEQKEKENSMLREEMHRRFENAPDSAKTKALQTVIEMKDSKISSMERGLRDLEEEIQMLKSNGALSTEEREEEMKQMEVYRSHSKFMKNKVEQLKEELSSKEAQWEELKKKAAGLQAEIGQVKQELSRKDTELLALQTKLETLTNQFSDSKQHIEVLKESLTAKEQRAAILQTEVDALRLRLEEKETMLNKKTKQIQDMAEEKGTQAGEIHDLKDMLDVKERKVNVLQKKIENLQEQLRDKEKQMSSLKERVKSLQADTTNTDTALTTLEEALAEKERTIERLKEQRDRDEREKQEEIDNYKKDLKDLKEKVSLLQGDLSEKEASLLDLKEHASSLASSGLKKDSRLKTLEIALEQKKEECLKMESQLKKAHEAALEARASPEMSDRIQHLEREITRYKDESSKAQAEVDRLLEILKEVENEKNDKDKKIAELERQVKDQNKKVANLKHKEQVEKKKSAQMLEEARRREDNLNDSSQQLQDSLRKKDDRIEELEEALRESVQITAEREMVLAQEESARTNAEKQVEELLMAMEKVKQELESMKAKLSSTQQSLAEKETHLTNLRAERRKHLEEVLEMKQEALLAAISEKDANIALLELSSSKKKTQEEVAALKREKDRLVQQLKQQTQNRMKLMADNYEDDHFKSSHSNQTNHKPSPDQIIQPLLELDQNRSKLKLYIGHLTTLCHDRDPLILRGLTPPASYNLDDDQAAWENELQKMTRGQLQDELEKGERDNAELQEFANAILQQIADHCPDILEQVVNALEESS

No constants are given. Whether binding was seen depends on the method and setting. In cells and extracts the contact can be indirect. Some entries that bind do so weakly or less than the wild type. For some assays here: Tags and fused reporters may be left off the sequences shown.

The results in this text go back to paper doi:10.1101/2023.10.24.563888.

B1: ELKS/Rab6-interacting/CAST family member 1 (ELKS), endogenous in hTCEpi cells (protein, UniProt Q8IUD2 1-1116)
chain: T2 sequence
Turning to B1, the binding result in test [1] and in test [2] was “binds” each time.

B2: Flag-tagged ELKS (protein, UniProt Q8IUD2 1-1116)
chain: T2 sequence
For the molecule B2, the binding entry in test [3] and in test [4] was “binds” in each case.

B3: Flag-tagged IKKε (enzyme, UniProt Q14164 1-716)
chain: T1 sequence
As for B3, the binding result in test [5] is reported as “binds”.
